Test results published in patent publication US11583588B2, “Modular self assembly disassembly (SADA) technologies” (MEMORIAL SLOAN KETTERING CANCER CENTER, priority 2017, dated 2023).
Some results were stated once for a whole list of compounds, not compound by compound.

Assay: HPLC in vitro stability of multimer (37° C. incubation, freeze/thaw cycles)
Assay type: physicochemical

B1: P53-Cytokine: IL15Rα, huP53-tet, IgG3 spacer; associates non-covalently with soluble IL15; SEQ ID NO: 57 (protein)
chain: ITCPPPMSVEHADIWVKSYSLYSRERYICNSGFKRKAGTSSLTECVLNKATNVAHWTTPSLKCIRTPLGDTTHTSGKPLDGEYFTLQIRGRERFEMFRELNEALELKDAQAGKEPGGSGGAPHHHHHH
  time self-assembled multimeric state maintained: over 30 days

B2: P63-Cytokine: IL15Rα, huP63-tet, IgG3 spacer; associates non-covalently with soluble IL15; SEQ ID NO: 59 (protein)
chain: ITCPPPMSVEHADIWVKSYSLYSRERYICNSGFKRKAGTSSLTECVLNKATNVAHWTTPSLKCIRTPLGDTTHTSGRSPDDELLYLPVRGRETYEMLLKIKESLELMQYLPQHTIETYRQQQQQQHQHLLQKQGGSGGAPHHHHHH
  time self-assembled multimeric state maintained: over 30 days

B3: P73-Cytokine: IL15Rα, huP73-tet, IgG3 spacer; associates non-covalently with soluble IL15; SEQ ID NO: 61 (protein)
chain: ITCPPPMSVEHADIWVKSYSLYSRERYICNSGFKRKAGTSSLTECVLNKATNVAHWTTPSLKCIRTPLGDTTHTSGRHGDEDTYYLQVRGRENFEILMKLKESLELMELVPQPLVDSYRQQQQLLQRPGGSGGAPHHHHHH
  time self-assembled multimeric state maintained: over 30 days
